Microarray screen: hit calls

Data from the ROBIN nucleic acid binder screens, doi:10.1002/anie.202211358.

Targets (5′ to 3′):
TPP: TPP riboswitch RNA three-way junction, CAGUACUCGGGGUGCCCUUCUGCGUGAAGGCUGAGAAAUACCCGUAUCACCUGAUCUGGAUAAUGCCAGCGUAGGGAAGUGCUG. About 160 hits among about 24,000 compounds.
SAM-II: SAM-II riboswitch RNA pseudoknot, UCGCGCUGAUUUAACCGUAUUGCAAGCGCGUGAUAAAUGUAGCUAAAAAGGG. About 200 hits among about 21,000 compounds.
PreQ1: PreQ1 riboswitch RNA pseudoknot, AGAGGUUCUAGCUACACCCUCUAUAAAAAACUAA. From B. subtilis. About 170 hits among about 24,000 compounds.

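Each compound is printed as two spots on a slide made to bind it covalently, so it has no test concentration; the read-out is fluorescence of the bound, labelled oligonucleotide. The data file lists only calls. An earlier report of the laboratory on the PreQ1, TPP and SAM-II riboswitches (doi:10.1038/s41467-019-09493-3) used 1 µM RNA for 2 h and required a mean Z-score above 3 (spot signal-to-noise against the whole library), a score well above that on a control array, and duplicate spots agreeing (coefficient of variation under 100); it then also set aside compounds that hit other targets, which this list keeps. The cut-offs behind this list may differ. The calls come from the array alone, and fixing a compound to the slide can hide its binding.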
“hit” means called a hit, “no hit” means screened and not called a hit.
This is an unselected part of the compounds tested.
A dash means that no call is listed here.

structure,TPP,SAM-II,PreQ1
O=C(Oc1ccccc1)N(c1ccccc1)c1ccccc1,no hit,no hit,no hit
CSc1ccccc1-n1ccnc1-c1cn(C2CCNCC2)nn1,no hit,no hit,no hit
CC(C)C1=NOC(C(=O)NCCc2nnc(N)s2)C1 (centres undefined),no hit,no hit,no hit
Nc1nc2ccccc2cc1C(=O)N1CCCC1,no hit,no hit,no hit
Cc1ccc(OCC(O)CN2CCCCC2C)c(C)c1 (centres undefined),no hit,no hit,no hit
COc1cccc(CC(=O)N2CCN(Cc3ccccc3)CC(O)C2)c1 (centres undefined),no hit,no hit,no hit
Cn1cc(C[C@@H](N)C(=O)O)c2ccccc21,no hit,no hit,no hit
Cc1nnnn1CCC(=O)N1C[C@H](CO)C[C@H](CN2CCCC2)C1,no hit,no hit,no hit
CC(Nc1nc(F)cc(F)n1)C(=O)O (centres undefined),no hit,no hit,no hit
NC1=N[C@H]2[C@H](CS[C@H]2CCCCC(=O)O)N1,no hit,no hit,no hit
CC1(C)CC(=O)C2=C(C1)OC(N)=C(C#N)C21CCCCC1,no hit,no hit,no hit
CCOC(=O)N1CCN(c2c(NCc3cccs3)c(=O)c2=O)CC1,no hit,-,no hit
Cc1[nH]nc2c1C(C1CC=CCC1)C(C#N)=C(N)O2 (centres undefined),no hit,no hit,no hit
O=C(O)CCNc1cc(C(=O)O)ccc1C(=O)O,no hit,no hit,no hit
OCc1ccc(CN2CCC(c3ccnc(-c4cccnc4)c3)C2)o1 (centres undefined),no hit,no hit,no hit
CCOc1ccc(-c2cnc(NCc3ccc(C)cc3)n2C)cc1,no hit,no hit,no hit
COC(=O)[C@H]1C[C@@H](O)CCN1C(=O)CCc1cccs1,no hit,no hit,no hit
CCOC(=O)C(=Cc1ccc(Br)cc1)C(=O)OCC,no hit,no hit,no hit
COc1cccc(Oc2ccc(NC(=O)N3CCCCCC3CO)cc2)c1 (centres undefined),no hit,no hit,no hit
CS(=O)(=O)c1ccc(NCC(=O)Nc2ccccc2SC(F)(F)C(F)(F)C(F)(F)F)c([N+](=O)[O-])c1,hit,no hit,hit
CCCOc1c(C(=O)OC)sc2ccc(N)cc12,no hit,-,no hit
Cc1nc(C)c(CC(=O)N2CCOCC(CO)C2)s1 (centres undefined),no hit,no hit,no hit
CCCn1cnc2cc(NCc3ccc(OCC)cc3)ccc21,no hit,no hit,no hit
Cc1nc2c(c(Nc3ccc(C)c(C)c3)n1)CCC2,no hit,-,no hit
Nc1nnnn1N=Cc1ccc(-c2ccc3c(c2)COC3=O)o1,no hit,no hit,no hit
Cc1ccc(OCCCn2c(CO)nc3ccccc32)cc1C,no hit,no hit,no hit
Cc1cccn2cc(CNC(=O)c3cc(CN4CCCC(O)C4)on3)nc12 (centres undefined),no hit,no hit,no hit
Nc1ccc(S(=O)(=O)N2CCC(c3nc(-c4ccccc4)no3)CC2)cc1,no hit,no hit,no hit
O=S(=O)(O)c1ccc2c(c1)C(C(Cl)(Cl)Cl)OC(C(Cl)(Cl)Cl)O2 (centres undefined),no hit,no hit,no hit
CCCNc1nc2c(c(=O)n(C)c(=O)n2C)n1C(C)C,no hit,no hit,no hit
C=CCNc1ccccc1C(=O)NCCN1CCCCC1CO (centres undefined),no hit,no hit,no hit
Cc1ccc(C)c(C2C(C#N)=C(N)N(c3cccnc3)C3=C2C(=O)CC(C)(C)C3)c1 (centres undefined),no hit,no hit,no hit
COc1ccc(C2=Nc3ccccc3NC(c3ccc(F)cc3)C2)cc1 (centres undefined),no hit,no hit,no hit
CCc1ccc(NC(=O)c2nnn(Cc3cccc(Br)c3)c2N)cc1,no hit,no hit,no hit
O=C(Nc1cccc(-c2cccc(Cl)c2)c1)N1C[C@@H](CO)[C@H](CO)C1,no hit,no hit,no hit
Cn1c(=O)n(C)c2cc(CNc3ccc(Cl)cc3)ccc21,no hit,-,no hit
Cc1ccc(OCC(O)Cn2c(C3CC(=O)N(c4ccccc4)C3)nc3ccccc32)c(C)c1 (centres undefined),no hit,-,no hit
Cc1nnc2c3ccccc3nc(Nc3ccc(F)c(Cl)c3)n12,no hit,-,no hit
Nc1cc(N2CCCC(C(=O)c3ccc4c5c(cccc35)CC4)C2)ncn1 (centres undefined),no hit,no hit,no hit
O=C(CN(Cc1ccccc1F)S(=O)(=O)c1ccc(Cl)cc1)NCCCO,no hit,no hit,no hit
O=C(O)c1cccc(CC2CCN(c3cc(NCCO)ncn3)CC2)c1,no hit,no hit,no hit
CSc1n/c(=N/N)s[nH]1,no hit,no hit,no hit
OCCNCc1ccc(CC2COc3ccccc3C2)cc1 (centres undefined),no hit,no hit,no hit
CC(CCc1ccco1)NC1CCC2(CCNCC2)CC1 (centres undefined),no hit,no hit,no hit
COc1cccc(-c2nc3c([nH]2)CCN(C2CCCNC2)C3)c1 (centres undefined),no hit,no hit,no hit
N#Cc1nc(-c2ccc(F)cc2)oc1NCC1CCCO1 (centres undefined),no hit,no hit,no hit
Cn1cnc(N)c2ncnc1-2,no hit,no hit,no hit
C[C@]12CC[C@@H]3c4ccc(O)cc4CC[C@H]3[C@@H]1CC[C@@H]2O,no hit,no hit,no hit
CC(NC(=O)C1C(=O)N(CCO)C2(C)CC1c1ccccc1O2)c1ccccc1 (centres undefined),no hit,no hit,no hit
Fc1ccccc1-c1nnc(C(Nc2ccccc2)c2ccccc2)o1 (centres undefined),no hit,no hit,no hit
Cn1cc(CCN2CCC3(CCC(=O)N(CCCO)C3)CC2)cn1,no hit,no hit,no hit
CCC[C@H]1C[C@H](C(=O)N[C@@H]([C@@H]2O[C@@H](SC)[C@@H](O)[C@@H](O)[C@@H]2O)[C@H](C)Cl)N(C)C1,no hit,no hit,no hit
CC(CO)NCCN1CCc2ccccc2C1 (centres undefined),no hit,no hit,no hit
CCN(Cc1ccccc1)C(=O)C1CCC(CNc2c(N3CCC(C)CC3)c(=O)c2=O)CC1 (centres undefined),no hit,-,no hit
Cc1cc(C)n(C2CN(c3nc(N)nc4c3CCCC4)C2)n1,no hit,no hit,no hit
O=C1CCCc2nc(Nc3ccc(F)cc3)ncc21,no hit,-,no hit
CCCc1cc(N2CCC(NC3CC(=O)N(CCOC)C3)CC2)nc(C)n1 (centres undefined),no hit,no hit,no hit
COc1cccc(C2c3c(-c4c(C)cc(C)cc4O)n[nH]c3C(=O)N2CCCO)c1 (centres undefined),no hit,-,no hit
CN(C)c1ccc(C2C(C#N)=C(N)Oc3c2sc2ccccc32)cc1 (centres undefined),no hit,no hit,no hit
Cc1nc(NC(=O)N2CCC[C@@H]2C(N)=O)sc1-c1csc(C(C)(C)C)n1,no hit,no hit,no hit
CN(C)c1ccccc1CN1CCCN(Cc2ccccc2N(C)C)C1c1ccncc1,no hit,no hit,no hit
O=C(c1cccc(CC2CCNCC2)c1)N1CCOCC(O)C1 (centres undefined),no hit,no hit,no hit
CCCc1nc(-c2cc3ccc(C)cc3nc2NCCc2ccccn2)no1,no hit,-,no hit
Cc1cc(C(=O)N2CCC3(CCN(C)CC3)C2)cc2sc(N)nc12,no hit,no hit,no hit
COc1ccc2c(c1)OC[C@]1(CO)CN(c3cc(C(F)(F)F)ccn3)C[C@H]21,no hit,no hit,no hit
CNC(=O)[C@H](Cc1ccccc1)NC(=O)[C@H](CC(C)C)[C@H](CSc1cccs1)C(=O)NO,no hit,no hit,no hit
Cc1cc(C)n(CC(=O)N2C[C@H](CO)C[C@H](CN3CCCC3)C2)c(=O)n1,no hit,no hit,no hit
O=C1NC2NC(=O)N(CCO)C2N1 (centres undefined),no hit,no hit,no hit
OCCn1c(N2CCN(Cc3cccc4[nH]ccc34)CC2)nc2ccccc21,no hit,no hit,no hit
COc1nnc(CN2Cc3ccccc3C(O)C2)s1 (centres undefined),no hit,no hit,no hit
Cc1ccc2cc(-c3noc(C)n3)c(NC(C)c3ccc(F)cc3)nc2c1 (centres undefined),no hit,-,no hit
COc1cc(N)ccc1OCCCN1CCCCC1.Cl.Cl,no hit,no hit,no hit
COc1ccc([C@H]2CN(C(=O)c3ccc4cccc(F)c4n3)C[C@@H]2N)cc1,no hit,no hit,no hit
CNc1oc(-c2ccccc2)nc1S(=O)(=O)c1ccc(Cl)cc1,no hit,-,no hit
C#CCN(C)[C@H](C)Cc1ccccc1,no hit,no hit,no hit
CCCC1CCCC(CCC)N1.Cl (centres undefined),no hit,no hit,no hit
O=C(O)CCc1nnc2ccc(NCCCN3CCCC3=O)nn12,no hit,no hit,no hit